Laboratory results reported in paper PMC10721265.
Results are given in words; binding and its absence hold for the method and conditions named. In cells and extracts the contact can be indirect. Some results given as binding are weak or reduced against the parent protein; the word gives no strength. Values belong to the binder of their own block, whether it stands above or below them.

Key:
[1] = biological target: T1, A1CF (mouse (endogenous in liver)) (UniProt Q5YD48); test: co-IP; endogenous A1CF and TRIM21 in mouse liver lysate; RIPA buffer, Dynabeads protein G, washes with RIPA + 500 mM NaCl; Western blot
T1 sequence: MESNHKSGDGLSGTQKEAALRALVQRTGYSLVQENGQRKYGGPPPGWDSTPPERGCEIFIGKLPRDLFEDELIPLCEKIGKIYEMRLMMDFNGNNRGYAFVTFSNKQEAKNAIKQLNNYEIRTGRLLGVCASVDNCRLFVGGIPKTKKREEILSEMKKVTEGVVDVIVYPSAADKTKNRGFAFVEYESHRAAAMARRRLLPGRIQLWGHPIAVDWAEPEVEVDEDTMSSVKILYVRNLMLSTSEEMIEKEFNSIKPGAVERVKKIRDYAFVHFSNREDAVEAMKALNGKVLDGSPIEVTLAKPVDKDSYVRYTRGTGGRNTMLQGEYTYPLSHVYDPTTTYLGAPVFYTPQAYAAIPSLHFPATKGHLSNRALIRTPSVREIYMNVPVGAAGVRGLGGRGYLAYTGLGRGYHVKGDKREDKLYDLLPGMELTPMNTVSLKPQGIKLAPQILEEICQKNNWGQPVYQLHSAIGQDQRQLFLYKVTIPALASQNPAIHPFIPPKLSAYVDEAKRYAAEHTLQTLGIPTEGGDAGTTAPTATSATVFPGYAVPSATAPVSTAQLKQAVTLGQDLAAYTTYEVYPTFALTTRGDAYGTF

[2] = biological target: T1, A1CF (mouse (endogenous in liver)); test: co-IP; validation of RBM47 with A1CF (Supplemental Figure 1B); sample not given; IP procedure in RIPA buffer, Dynabeads protein G, Western blot

binding [1]: binds
B1: TRIM21 E3 ubiquitin ligase (protein, UniProt Q62191 1-470)
chain: MSPSTTSKMSLEKMWEEVTCSICLDPMVEPMSIECGHCFCKECIFEVGKNGGSSCPECRQQFLLRNLRPNRHIANMVENLKQIAQNTKKSTQETHCMKHGEKLHLFCEEDGQALCWVCAQSGKHRDHTRVPIEEAAKVYQEKIHVVLEKLRKGKELAEKMEMDLTMQRTDWKRNIDTQKSRIHAEFALQNSLLAQEEQRQLQRLEKDQREYLRLLGKKEAELAEKNQALQELISELERRIRGSELELLQEVRIILERSGSWNLDTLDIDAPDLTSTCPVPGRKKMLRTCWVHITLDRNTANSWLIISKDRRQVRMGDTHQNVSDNKERFSNYPMVLGAQRFSSGKMYWEVDVTQKEAWDLGVCRDSVQRKGQFSLSPENGFWTIWLWQDSYEAGTSPQTTLHIQVPPCQIGIFVDYEAGVVSFYNITDHGSLIYTFSECVFAGPLRPFFNVGFNYSGGNAAPLKLCPLKM

binding [2]: binds
B2: RBM47 (protein, UniProt Q91WT8 1-590)
chain: MTAEDSATAMNSDPTVGSSTKVPEGVAGAPNEAALLALIERTGYTMVQENGQRKYGGPPPGWEGPHPQRGCEVFVGKIPRDVYEDELVPVFETVGRIYELRLMMDFDGKNRGYAFVMYCHKHEAKRAVRELNNYEIRPGRLLGVCCSVDNCRLFIGGIPKMKKRGEILEEIAKVTEGVLNVIVYASAADKMKNRGFAFVEYESHRAAAMARRKLMPGRIQLWGHQIAVDWAEPEIDVDEDVMQTVKILYVRNLMIETTEETIKKSFGQFNPGCVERVKKIRDYAFVHFTSREDAVHAMNNLNGTELEGSCLEVTLAKPVDKEQYSRYQKAAKGGGGSAEAVAQQPSYVYSCDPYTLAYYGYPYNALIGPNRDYFVKTGSIRGRGRGAAGNRTPGPRGSYLGGYSAGRGIYSRYHEGKGKQQEKGYELVPNLEISPVNPVAIKPGTVAIPAIGAQYSMFQAAPAPKIIEDGKIHTMEHMISPIAVQPDPATAAAAAAAAAAAAVIPAVSTPPPFQGRPITPVYTVAPNVQRIPTAGIYGASYVPFAAPATATIATLQKNAAAAVYGGYAGYIPQAFPAALQVPIHDVYQTY
